{"sequences": {"note": "Sequences of proteins named here, by UniProt entry; tags and fusion partners are left off.", "UniProt P63330": "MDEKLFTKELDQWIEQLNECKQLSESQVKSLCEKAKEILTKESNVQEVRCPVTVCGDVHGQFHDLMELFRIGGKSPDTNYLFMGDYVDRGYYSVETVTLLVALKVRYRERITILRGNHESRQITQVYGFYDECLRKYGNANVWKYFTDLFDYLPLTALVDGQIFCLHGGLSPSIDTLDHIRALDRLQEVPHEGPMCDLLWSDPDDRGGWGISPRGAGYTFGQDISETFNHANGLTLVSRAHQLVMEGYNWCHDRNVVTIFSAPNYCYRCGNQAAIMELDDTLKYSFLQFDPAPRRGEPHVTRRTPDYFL", "UniProt Q9EQU5": "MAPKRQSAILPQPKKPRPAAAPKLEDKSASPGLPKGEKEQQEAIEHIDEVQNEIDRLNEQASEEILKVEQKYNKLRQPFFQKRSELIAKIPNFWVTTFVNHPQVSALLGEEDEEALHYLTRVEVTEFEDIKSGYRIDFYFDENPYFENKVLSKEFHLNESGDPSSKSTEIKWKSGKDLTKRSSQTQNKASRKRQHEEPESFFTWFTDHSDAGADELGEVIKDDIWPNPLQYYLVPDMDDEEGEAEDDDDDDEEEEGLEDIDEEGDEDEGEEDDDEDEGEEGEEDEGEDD", "UniProt Q61937": "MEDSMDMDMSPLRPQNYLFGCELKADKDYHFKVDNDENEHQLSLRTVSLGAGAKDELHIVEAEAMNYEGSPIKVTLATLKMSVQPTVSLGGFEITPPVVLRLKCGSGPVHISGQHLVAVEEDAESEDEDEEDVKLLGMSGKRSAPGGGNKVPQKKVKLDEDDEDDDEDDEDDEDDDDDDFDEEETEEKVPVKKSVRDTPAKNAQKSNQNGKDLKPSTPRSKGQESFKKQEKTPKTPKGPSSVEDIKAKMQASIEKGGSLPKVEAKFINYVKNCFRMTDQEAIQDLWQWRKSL"}, "source": "paper PMC7685970", "key": {"[1]": {"target": "T1, Shwachman–Bodian–Diamond syndrome (SBDS) protein (mouse (endogenous in FDC.P1)) (UniProt P70122)", "T1 sequence": "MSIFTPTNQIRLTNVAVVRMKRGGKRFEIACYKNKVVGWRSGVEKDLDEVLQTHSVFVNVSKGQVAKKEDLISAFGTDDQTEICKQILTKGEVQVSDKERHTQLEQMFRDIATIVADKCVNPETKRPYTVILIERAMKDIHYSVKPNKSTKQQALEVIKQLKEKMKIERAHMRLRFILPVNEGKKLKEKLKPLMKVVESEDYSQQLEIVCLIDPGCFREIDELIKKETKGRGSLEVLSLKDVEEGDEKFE", "test": "co-IP; immunoprecipitation with SBDS antibody from c-KIT/D816V cells, Western blot"}, "[2]": {"target": "catalytic subunit of PP2A, PP2Ac (PPP2CA) (mouse (endogenous in FDC.P1)) (UniProt P63330)", "test": "co-IP; reciprocal immunoprecipitation with PP2Ac antibody (PP2Ac as bait) from c-KIT/D816V cells, Western blot"}}, "note": "Results are given in words; binding and its absence hold for the method and conditions named. In cells and extracts the contact can be indirect. Some entries that bind do so weakly or less than the wild type.", "data": [{"molecule": "SET (from UniProt Q9EQU5 1-289)", "values": [{"measurement": "binding", "setting": "[1]", "value": "binds"}]}, {"molecule": "nucleophosmin (NPM1) (from UniProt Q61937 1-292)", "values": [{"measurement": "binding", "setting": "[1]", "value": "binds"}]}, {"molecule": "catalytic subunit of PP2A, PP2Ac (PPP2CA) (from UniProt P63330 1-309) (enzyme)", "values": [{"measurement": "binding", "setting": "[1]", "value": "binds"}]}, {"molecule": "Shwachman–Bodian–Diamond syndrome (SBDS) protein (protein, UniProt P70122 1-250) MSIFTPTNQIRLTNVAVVRMKRGGKRFEIACYKNKVVGWRSGVEKDLDEVLQTHSVFVNVSKGQVAKKEDLISAFGTDDQTEICKQILTKGEVQVSDKERHTQLEQMFRDIATIVADKCVNPETKRPYTVILIERAMKDIHYSVKPNKSTKQQALEVIKQLKEKMKIERAHMRLRFILPVNEGKKLKEKLKPLMKVVESEDYSQQLEIVCLIDPGCFREIDELIKKETKGRGSLEVLSLKDVEEGDEKFE", "values": [{"measurement": "binding", "setting": "[2]", "value": "binds"}]}]}
